Results taken from PubChem BioAssay.
This is one part of the list. Further columns of the screen follow, without active or inactive calls. The list favours compounds with an active or inconclusive main result.

assay: Her2 expression decrease, cell viability multiplex – SKBR3 breast tumor cells, AlphaScreen, ATP viability, primary screen (AID 461); details: SKBR3 Her2 protein level, 18-24 h, measured here: SKBR3 viability, ATP luminescence, at 10 µM;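 also: percent of carrier control wells set as 100% viability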

| SMILES | viability [%] |
| --- | --- |
| Clc1ccc(COC(Cn2ccnc2)c2ccc(Cl)cc2Cl)cc1 (stereo unspecified) | 123 |
| CN1C[C@H](CNC(=O)OCc2ccccc2)C[C@@H]2c3cccc4c3c(cn4C)C[C@H]21 | 50.5 |
| COc1ccc(CCn2c(O)c(C=NCc3cccnc3)c(=O)[nH]c2=O)cc1OC | 63 |
| O=C(CN1C2CCC1CC(O)(c1cccnc1)C2)Nc1ccc2c(c1)OCO2 (stereo unspecified) | 72 |
| Cc1ccc2c(c1)[C@@H]1CN(C)CC[C@@H]1N2C(=O)Nc1cccc(C(F)(F)F)c1 | 67.5 |
| CCC(C)NC(=O)c1c(N)n(CC2CCCO2)c2nc3ccccc3nc12 (stereo unspecified) | 93 |
| N=C(N)c1c(O)n(C2CCCCC2)c(=O)n(C2CCCCC2)c1=O | 53.5 |
| Cc1cccc(C2=NCC(=O)N(CC(=O)NCc3ccco3)c3sc4c(c32)CCCC4)c1 | 102 |
| CCCNC(=O)c1c(N)n(Cc2ccc3c(c2)OCO3)c2nc3ccccc3nc12 | 102 |
| CC(C)OCCCNC(=O)c1c(N)n(Cc2cccs2)c2nc3ccccc3nc12 | 26 |
| O=c1[nH]c2ccccc2n1C1CCN(CCCC(c2ccc(F)cc2)c2ccc(F)cc2)CC1 | 52.5 |

Reformatted with bars between the fields: part of the list above.
SMILES | viability [%]
Cc1ccc2c(c1)[C@@H]1CN(C)CC[C@@H]1N2C(=O)Nc1cccc(C(F)(F)F)c1 | 67.5
Cc1cccc(C2=NCC(=O)N(CC(=O)NCc3ccco3)c3sc4c(c32)CCCC4)c1 | 102
